These are yes or no findings as the source states them, for the method shown. Some results given as binding are weak or reduced against the parent protein; the word gives no strength. Tags and fused reporters may be left off the sequences shown.
Experiments:
[1] = biological target: T1, Zinc finger CCCH domain-containing protein 13 (ZC3H13) (1106–1668), N-Twin-Strep-tag-ZC3H13 (1106–1668) (human) (UniProt Q5T200); assay: SEC; MACOM components co-expressed in High Five cells; HWVZ, HWV, WVZ and WV complexes purified by tandem affinity (Ni-NTA and STREP beads), then Superose 6 Increase 10/300 GL in 100 mM KCl, 20 mM HEPES pH 7.5, 10% glycerol, 1 mM DTT; SDS-PAGE of the complexes; both purified
T1 sequence: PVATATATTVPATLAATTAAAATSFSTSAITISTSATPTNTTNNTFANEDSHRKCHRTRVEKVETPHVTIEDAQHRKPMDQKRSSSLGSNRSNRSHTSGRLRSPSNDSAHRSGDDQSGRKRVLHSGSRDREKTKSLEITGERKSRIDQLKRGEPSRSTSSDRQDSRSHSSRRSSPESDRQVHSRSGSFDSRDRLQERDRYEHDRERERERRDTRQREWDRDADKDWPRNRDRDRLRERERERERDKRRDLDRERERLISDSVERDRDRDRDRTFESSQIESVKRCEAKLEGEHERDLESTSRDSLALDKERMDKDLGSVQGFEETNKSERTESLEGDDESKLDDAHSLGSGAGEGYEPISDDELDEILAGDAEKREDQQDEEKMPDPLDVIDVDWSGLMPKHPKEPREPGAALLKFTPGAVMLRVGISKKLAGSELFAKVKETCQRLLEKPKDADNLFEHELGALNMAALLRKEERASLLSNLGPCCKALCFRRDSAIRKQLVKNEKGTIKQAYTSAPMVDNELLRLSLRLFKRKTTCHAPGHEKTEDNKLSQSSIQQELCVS

The chains behind the UniProt entries cited, without tags or fusion partners.
UniProt Q69YN4: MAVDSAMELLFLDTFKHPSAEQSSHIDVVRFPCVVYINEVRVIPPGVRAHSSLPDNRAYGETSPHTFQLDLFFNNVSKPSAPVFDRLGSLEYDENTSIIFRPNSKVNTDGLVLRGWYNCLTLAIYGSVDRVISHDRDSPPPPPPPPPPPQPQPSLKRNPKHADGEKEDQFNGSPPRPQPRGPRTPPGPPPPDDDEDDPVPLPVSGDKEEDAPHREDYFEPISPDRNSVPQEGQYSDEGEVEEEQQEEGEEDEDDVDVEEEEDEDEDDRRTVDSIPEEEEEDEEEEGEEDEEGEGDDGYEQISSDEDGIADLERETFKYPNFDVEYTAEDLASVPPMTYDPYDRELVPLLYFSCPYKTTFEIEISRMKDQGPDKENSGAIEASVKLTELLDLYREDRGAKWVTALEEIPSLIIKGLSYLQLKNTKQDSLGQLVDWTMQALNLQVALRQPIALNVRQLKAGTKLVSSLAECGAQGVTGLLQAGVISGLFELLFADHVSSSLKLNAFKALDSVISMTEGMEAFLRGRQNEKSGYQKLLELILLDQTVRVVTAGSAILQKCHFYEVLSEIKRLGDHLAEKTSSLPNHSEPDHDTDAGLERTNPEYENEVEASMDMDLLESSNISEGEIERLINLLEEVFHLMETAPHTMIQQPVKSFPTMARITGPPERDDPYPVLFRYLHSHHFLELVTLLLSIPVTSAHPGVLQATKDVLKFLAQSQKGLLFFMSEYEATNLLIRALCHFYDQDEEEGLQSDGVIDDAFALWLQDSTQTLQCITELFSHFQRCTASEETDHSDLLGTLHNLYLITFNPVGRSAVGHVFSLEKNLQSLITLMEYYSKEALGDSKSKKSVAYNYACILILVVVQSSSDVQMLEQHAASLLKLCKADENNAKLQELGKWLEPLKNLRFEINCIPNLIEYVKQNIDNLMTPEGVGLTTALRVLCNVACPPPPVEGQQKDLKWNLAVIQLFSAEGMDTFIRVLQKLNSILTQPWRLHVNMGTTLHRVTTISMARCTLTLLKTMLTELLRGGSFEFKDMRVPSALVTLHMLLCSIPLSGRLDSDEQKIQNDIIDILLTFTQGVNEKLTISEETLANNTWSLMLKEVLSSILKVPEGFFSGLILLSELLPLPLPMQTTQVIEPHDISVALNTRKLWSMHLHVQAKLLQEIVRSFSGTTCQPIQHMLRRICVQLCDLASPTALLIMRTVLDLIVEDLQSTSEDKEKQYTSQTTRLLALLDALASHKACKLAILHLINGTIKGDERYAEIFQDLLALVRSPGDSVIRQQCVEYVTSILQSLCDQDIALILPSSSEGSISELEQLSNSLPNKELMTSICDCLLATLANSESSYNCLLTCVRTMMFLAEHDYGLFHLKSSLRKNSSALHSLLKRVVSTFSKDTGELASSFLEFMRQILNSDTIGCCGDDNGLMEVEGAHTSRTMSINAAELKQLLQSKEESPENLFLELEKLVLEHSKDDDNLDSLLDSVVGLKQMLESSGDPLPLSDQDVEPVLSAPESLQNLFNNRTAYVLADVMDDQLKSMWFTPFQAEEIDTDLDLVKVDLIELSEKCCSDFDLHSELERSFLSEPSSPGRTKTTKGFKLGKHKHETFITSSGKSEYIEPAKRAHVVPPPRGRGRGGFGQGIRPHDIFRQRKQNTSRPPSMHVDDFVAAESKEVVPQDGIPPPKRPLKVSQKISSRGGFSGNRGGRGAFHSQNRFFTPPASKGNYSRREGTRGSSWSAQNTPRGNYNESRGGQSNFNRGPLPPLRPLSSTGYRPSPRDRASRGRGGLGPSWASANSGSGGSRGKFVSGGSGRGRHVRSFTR

[2] = biological target: KIAA1429 (VIRMA), full length, N-6× His-VIRMA (human) (UniProt Q69YN4); assay: as above
[3] = biological target: T2, Wilms' tumor 1-associated protein (WTAP), full length, N-6× His-WTAP (human) (UniProt Q15007); assay: as above
T2 sequence: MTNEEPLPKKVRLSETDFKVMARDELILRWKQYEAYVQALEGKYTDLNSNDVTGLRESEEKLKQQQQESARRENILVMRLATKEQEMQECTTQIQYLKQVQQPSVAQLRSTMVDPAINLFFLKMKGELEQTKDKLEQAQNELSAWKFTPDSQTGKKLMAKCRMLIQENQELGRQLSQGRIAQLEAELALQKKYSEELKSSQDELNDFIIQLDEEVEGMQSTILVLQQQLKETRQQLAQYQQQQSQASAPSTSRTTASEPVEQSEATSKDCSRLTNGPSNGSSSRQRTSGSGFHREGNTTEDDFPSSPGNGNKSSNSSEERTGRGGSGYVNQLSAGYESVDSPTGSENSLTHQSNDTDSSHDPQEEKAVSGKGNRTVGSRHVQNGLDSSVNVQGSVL

[4] = biological target: T1, Zinc finger CCCH domain-containing protein 13 (ZC3H13) (1106–1668), N-Twin-Strep-tag-ZC3H13 (1106–1668) (human); assay: cross-linking; BS3 XL-MS of purified MACOM (Fig. S4a, b): 0.5 mM BS3, 50 mM HEPES pH 7.5, 100 mM KCl, 5% glycerol, 25 °C, 2 h; pLink2; both purified
[5] = biological target: KIAA1429 (VIRMA), full length, N-6× His-VIRMA (human) (UniProt Q69YN4); assay: as above
[6] = biological target: T2, Wilms' tumor 1-associated protein (WTAP), full length, N-6× His-WTAP (human); assay: as above
[7] = biological target: KIAA1429 (VIRMA), full length, N-6× His-VIRMA (human) (UniProt Q69YN4); assay: cryo-EM structure; HWVZ complex cross-linked with 0.5 mM BS3 (2 h, 25 °C), glycerol density gradient; 3.0 Å map, de novo model; both purified
[8] = biological target: T1, Zinc finger CCCH domain-containing protein 13 (ZC3H13) (1106–1668), N-Twin-Strep-tag-ZC3H13 (1106–1668) (human); assay: cross-linking; BS3 XL-MS of purified MACOM with MAC (Fig. S4c, d): 0.5 mM BS3, 50 mM HEPES pH 7.5, 100 mM KCl, 5% glycerol, 25 °C, 2 h; pLink2; both purified
[9] = biological target: T3, E3 ubiquitin ligase CBLL1 (HAKAI), full length, untagged (human) (UniProt Q75N03); assay: as above
T3 sequence: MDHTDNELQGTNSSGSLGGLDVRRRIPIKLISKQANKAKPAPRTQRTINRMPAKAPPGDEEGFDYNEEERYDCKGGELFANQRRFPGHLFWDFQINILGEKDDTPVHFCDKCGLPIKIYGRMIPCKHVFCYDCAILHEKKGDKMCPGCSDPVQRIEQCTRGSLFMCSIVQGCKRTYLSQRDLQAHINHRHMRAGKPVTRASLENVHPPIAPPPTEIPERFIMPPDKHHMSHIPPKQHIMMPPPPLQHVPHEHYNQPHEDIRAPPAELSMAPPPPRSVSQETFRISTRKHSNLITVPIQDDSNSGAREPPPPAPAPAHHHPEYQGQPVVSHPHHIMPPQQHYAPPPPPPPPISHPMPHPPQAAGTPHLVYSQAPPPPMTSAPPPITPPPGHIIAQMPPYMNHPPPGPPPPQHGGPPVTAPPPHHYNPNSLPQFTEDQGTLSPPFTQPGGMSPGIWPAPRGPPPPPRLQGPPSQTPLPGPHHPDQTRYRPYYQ

Measured: binding

B1: E3 ubiquitin ligase CBLL1 (HAKAI), full length, untagged (protein, UniProt Q75N03 1-491)
chain: T3 sequence
not listed: [7] | [8] | [9]
binds: all other assays above

B2: Zinc finger CCCH domain-containing protein 13 (ZC3H13) (1106–1668), N-Twin-Strep-tag-ZC3H13 (1106–1668) (domain or fragment, UniProt Q5T200 1106-1668)
chain: T1 sequence
binds: [7] | [2]

B3: methyltransferase-like 14 (METTL14), full length (protein, UniProt Q9HCE5 1-456)
chain: MDSRLQEIRERQKLRRQLLAQQLGAESADSIGAVLNSKDEQREIAETRETCRASYDTSAPNAKRKYLDEGETDEDKMEEYKDELEMQQDEENLPYEEEIYKDSSTFLKGTQSLNPHNDYCQHFVDTGHRPQNFIRDVGLADRFEEYPKLRELIRLKDELIAKSNTPPMYLQADIEAFDIRELTPKFDVILLEPPLEEYYRETGITANEKCWTWDDIMKLEIDEIAAPRSFIFLWCGSGEGLDLGRVCLRKWGYRRCEDICWIKTNKNNPGKTKTLDPKAVFQRTKEHCLMGIKGTVKRSTDGDFIHANVDIDLIITEEPEIGNIEKPVEIFHIIEHFCLGRRRLHLFGRDSTIRPGWLTVGPTLTNSNYNAETYASYFSAPNSYLTGCTEEIERLRPKSPPPKSKSDRGGGAPRGGGRGGTSAGRGRERNRSNFRGERGGFRGGRGGAHRGGFPPR
binds: [8] | [9]
